Results deposited as PubChem BioAssay AID504804 (Drosophila RNAi Screening Center, 2011).

Aim: 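Fly genes whose loss lessens doxorubicin-driven cell death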 (primary screen)
Cells: Drosophila Kc cells
Reagent: long dsRNA against Drosophila genes, 0.5 µg dsRNA per well
Duration: 96 h (48 h knock-down, then 48 h drug)
Challenge: doxorubicin 5 µg/ml for 48 h, added 48 h after dsRNA
Measured: 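Viability measured as cellular ATP by luminescence after 48 h knock-down then 48 h doxorubicin at 5 µg/ml; unnormalised plate counts for each replicate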
Direction: raw ATP luminescence: higher = more viable cells, protection from doxorubicin
Active means: 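Active when both duplicate wells lie at least 2 SD above the plate mean and protection is confirmed by rescreening and independent dsRNAs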
In all, the deposit lists about 19,000 reagents; this is a random part of those with a known target gene and a result. Over the whole deposit, 47 (0.25%) were called active. 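Signals are raw, not normalised; exact z-scores behind calls not deposited; actives needed confirmation, so some wells reaching 2 SD are inactive.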 Unmarked entries are inactive. Reagent sequences are not shown.

For Prp40 [DRSC00612], how do the results read?
raw ATP luminescence, replicate 1: 78380; raw ATP luminescence, replicate 2: 63043

How did the screen score Marc [DRSC06614]?
raw ATP luminescence, replicate 1: 47260; raw ATP luminescence, replicate 2: 69350

How did the screen score CG18294 [DRSC09891]?
raw ATP luminescence, replicate 1: 54220; raw ATP luminescence, replicate 2: 70813

How did the screen score CG10588 [DRSC11628]?
raw ATP luminescence, replicate 1: 63460; raw ATP luminescence, replicate 2: 67343

For Or94a [DRSC16772], what was measured?
raw ATP luminescence, replicate 1: 62480; raw ATP luminescence, replicate 2: 74700

What did the screen give for WRNexo [DRSC16278]?
raw ATP luminescence, replicate 1: 39697; raw ATP luminescence, replicate 2: 46717

What did the screen give for igl [DRSC07631]?
raw ATP luminescence, replicate 1: 55457; raw ATP luminescence, replicate 2: 82630

With CG9399 [DRSC16488], how do the results read?
raw ATP luminescence, replicate 1: 65423; raw ATP luminescence, replicate 2: 61773

For Lk6 [DRSC12867], how do the results read?
raw ATP luminescence, replicate 1: 2.19e5; raw ATP luminescence, replicate 2: 1.90e5

How did the screen score Lk6 [DRSC16728]?
raw ATP luminescence, replicate 1: 57127; raw ATP luminescence, replicate 2: 24517

What did the screen give for GstD7 [DRSC16688]?
raw ATP luminescence, replicate 1: 47853; raw ATP luminescence, replicate 2: 67820

For CG31231 [DRSC13308], how do the results read?
raw ATP luminescence, replicate 1: 2.34e5; raw ATP luminescence, replicate 2: 2.07e5

What is on record for CG4328 [DRSC10410]?
raw ATP luminescence, replicate 1: 35693; raw ATP luminescence, replicate 2: 34860

What did the screen give for Cog2 [DRSC16987]?
raw ATP luminescence, replicate 1: 91430; raw ATP luminescence, replicate 2: 77990

4 entries from above, arranged by “raw ATP luminescence, replicate 1”, ascending:
Marc [DRSC06614] — raw ATP luminescence, replicate 1 = 47260; raw ATP luminescence, replicate 2 = 69350
CG18294 [DRSC09891] — raw ATP luminescence, replicate 1 = 54220; raw ATP luminescence, replicate 2 = 70813
CG10588 [DRSC11628] — raw ATP luminescence, replicate 1 = 63460; raw ATP luminescence, replicate 2 = 67343
Prp40 [DRSC00612] — raw ATP luminescence, replicate 1 = 78380; raw ATP luminescence, replicate 2 = 63043

Further results follow:
What is on record for CG14111 [DRSC10114]?
raw ATP luminescence, replicate 1: 77953; raw ATP luminescence, replicate 2: 83067

What did the screen give for CG13631 [DRSC14632]?
raw ATP luminescence, replicate 1: 21887; raw ATP luminescence, replicate 2: 21610

What did the screen give for Ns4 [DRSC03199]?
raw ATP luminescence, replicate 1: 91320; raw ATP luminescence, replicate 2: 73330

For NimC3 [DRSC03556], what does the deposit list?
raw ATP luminescence, replicate 1: 72143; raw ATP luminescence, replicate 2: 80713

What is on record for MP1 [DRSC12124]?
raw ATP luminescence, replicate 1: 24693; raw ATP luminescence, replicate 2: 27567

With Con [DRSC08652], what does the deposit list?
raw ATP luminescence, replicate 1: 47240; raw ATP luminescence, replicate 2: 38463

For CG12520 [DRSC09892], how do the results read?
raw ATP luminescence, replicate 1: 74903; raw ATP luminescence, replicate 2: 81427

What did the screen give for CG14995 [DRSC08452]?
raw ATP luminescence, replicate 1: 33697; raw ATP luminescence, replicate 2: 28160

What did the screen give for Sec61beta [DRSC07548]?
raw ATP luminescence, replicate 1: 1.34e5; raw ATP luminescence, replicate 2: 1.44e5

What is on record for pnt [DRSC17028]?
raw ATP luminescence, replicate 1: 26290; raw ATP luminescence, replicate 2: 21450

With SIFaR [DRSC13467], what was measured?
raw ATP luminescence, replicate 1: 2.69e5; raw ATP luminescence, replicate 2: 2.43e5

What did the screen give for SIFaR [DRSC14266]?
raw ATP luminescence, replicate 1: 42030; raw ATP luminescence, replicate 2: 37540

For AttD [DRSC16272], what was measured?
raw ATP luminescence, replicate 1: 2.02e5; raw ATP luminescence, replicate 2: 2.09e5

For CG13067 [DRSC09950], what was measured?
raw ATP luminescence, replicate 1: 36837; raw ATP luminescence, replicate 2: 28347

How did the screen score tra2 [DRSC07708]?
raw ATP luminescence, replicate 1: 60807; raw ATP luminescence, replicate 2: 53410

What did the screen give for CG3511 [DRSC04382]?
raw ATP luminescence, replicate 1: 76320; raw ATP luminescence, replicate 2: 74473

What is on record for Rgl [DRSC11267]?
raw ATP luminescence, replicate 1: 51727; raw ATP luminescence, replicate 2: 55977

For feo [DRSC19398], how do the results read?
raw ATP luminescence, replicate 1: 1.61e5; raw ATP luminescence, replicate 2: 2.24e5

Which result is listed for CG15628 [DRSC00256]?
raw ATP luminescence, replicate 1: 1.30e5; raw ATP luminescence, replicate 2: 1.16e5

How did the screen score CG15628 [DRSC00463]?
raw ATP luminescence, replicate 1: 34243; raw ATP luminescence, replicate 2: 40393

What did the screen give for Prosbeta4R2 [DRSC00503]?
raw ATP luminescence, replicate 1: 1.14e5; raw ATP luminescence, replicate 2: 73020

For atl [DRSC16089], how do the results read?
raw ATP luminescence, replicate 1: 57823; raw ATP luminescence, replicate 2: 50757
